# Experimental data published in the supplement of paper PMC8728848.
# The other results are listed elsewhere or left out.
# B1: GS7807I-bvu-563-22-563 (Bacteroides vulgatus) (protein)
# chain: IFSSCTDDFEKLNTSNIQVDPADLPFAAQCTEPMTYCYPPQQNMFQFWTNLTIDLYGGYFMTPNGNFTNGDMGENRGHSGGMYENYYLHIFNNTRRIIAQCDASGERGLSGVMRIVQAYGTLMTTDAYGPIPYSSILSGENEVYFEFDSQKDLYKAMLEDLSTAITDISAMGADEIAKLKSFDCWCNGDKDLWVKIANTMKLRMALRLSKRETEAGNAGMNLKAIATEAAQNTLATVNKDILIDKSLENEMWLMFNWGDCGFNANLVTIMSGTKDPRQPLYMTLNTGDIKNEAGTTTVAANSQYLGIRFASGLPAKPNSWGNFSGWIQGNNGSSYSMPLPIMKAAEAYFLLAEAKLRWDIGSESVKNLYENGIRVSMTNELAYRGAYAGIKEYPEGAVDAYINGTSTQIDYTDPIKAELSTPAVNKLSVKWDESASNEEKLERIITQKWLALFPLSTEGWAEQRRTGYPRFFPAFVNESNGAVNTEEGVRRVIYSSQAYDANAKGVEGGIKLLDEENSSKFGISGDKGGTHLWWDNADKGNF
# Tests used:
# Test in all cases: glycan array binding signal (z-score within array); higher = stronger binding
# Settings in all cases: glycan notation: IUPAC condensed, linker removed
# [1] = target: Neu5Ac(a2-6)Gal(b1-4)GlcNAc(b1-2)Man(a1-3)[Man(a1-6)]Man(b1-4)GlcNAc(b1-4)GlcNAc
# Summary of the method: (§1)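 Arrays were curated from the Consortium for Functional Glycomics database, 3228 in total, and kept only where the protein sequence was available. Binding is expressed as a within-array Z-score. This score was averaged across arrays of the same protein sequence at different concentrations or buffers and across linkers, and negative values can be read as non-binding.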
# [2] = target: Neu5Ac(a2-6)Gal(b1-4)GlcNAc(b1-2)Man(a1-3)[Neu5Ac(a2-3)Gal(b1-4)GlcNAc(b1-2)Man(a1-6)]Man(b1-4)GlcNAc(b1-4)GlcNAc
# Summary of the method: as §1
# [3] = target: Neu5Ac(a2-6)Gal(b1-4)GlcNAc(b1-2)Man(a1-3)[Neu5Ac(a2-6)Gal(b1-4)GlcNAc(b1-2)Man(a1-6)]Man(b1-4)GlcNAc(b1-4)GlcNAc
# Summary of the method: as §1
# [4] = target: Neu5Ac(a2-6)Gal(b1-4)GlcNAc(b1-2)Man(a1-3)[Neu5Ac(a2-6)Gal(b1-4)GlcNAc(b1-2)Man(a1-6)]Man(b1-4)GlcNAc(b1-4)[Fuc(a1-6)]GlcNAc
# Summary of the method: as §1
# [5] = target: Neu5Ac(a2-6)Gal(b1-4)GlcNAc(b1-2)Man(a1-6)Man(b1-4)GlcNAc(b1-4)GlcNAc
# Summary of the method: as §1
# [6] = target: Neu5Ac(a2-6)Gal(b1-4)GlcNAc(b1-2)Man(a1-6)[Gal(b1-4)GlcNAc(b1-2)Man(a1-3)]Man(b1-4)GlcNAc(b1-4)GlcNAc
# Summary of the method: as §1
# [7] = target: Neu5Ac(a2-6)Gal(b1-4)GlcNAc(b1-2)Man(a1-6)[GlcNAc(b1-2)Man(a1-3)]Man(b1-4)GlcNAc(b1-4)GlcNAc
# Summary of the method: as §1
# [8] = target: Neu5Ac(a2-6)Gal(b1-4)GlcNAc(b1-2)Man(a1-6)[Man(a1-3)]Man(b1-4)GlcNAc(b1-4)GlcNAc
# Summary of the method: as §1
# [9] = target: Neu5Ac(a2-6)Gal(b1-4)GlcNAc(b1-2)[Neu5Ac(a2-6)Gal(b1-4)GlcNAc(b1-4)]Man(a1-3)[GlcNAc(b1-4)][Neu5Ac(a2-6)Gal(b1-4)GlcNAc(b1-2)[Neu5Ac(a2-6)Gal(b1-4)GlcNAc(b1-6)]Man(a1-6)]Man(b1-4)GlcNAc(b1-4)GlcNAc
# Summary of the method: as §1
# [10] = target: Neu5Ac(a2-6)Gal(b1-4)GlcNAc(b1-2)[Neu5Ac(a2-6)Gal(b1-4)GlcNAc(b1-4)]Man(a1-3)[GlcNAc(b1-4)][Neu5Ac(a2-6)Gal(b1-4)GlcNAc(b1-4)Man(a1-6)]Man(b1-4)GlcNAc(b1-4)GlcNAc
# Summary of the method: as §1
# [11] = target: Neu5Ac(a2-6)Gal(b1-4)GlcNAc(b1-2)[Neu5Ac(a2-6)Gal(b1-4)GlcNAc(b1-6)]Man(a1-6)[Neu5Ac(a2-6)Gal(b1-4)GlcNAc(b1-2)Man(a1-3)][GlcNAc(b1-4)]Man(b1-4)GlcNAc(b1-4)GlcNAc
# Summary of the method: as §1
# [12] = target: Neu5Ac(a2-6)Gal(b1-4)GlcNAc(b1-3)Gal(b1-3)GlcNAc
# Summary of the method: as §1
# [13] = target: Neu5Ac(a2-6)Gal(b1-4)GlcNAc(b1-3)Gal(b1-4)GlcNAc
# Summary of the method: as §1
# [14] = target: Neu5Ac(a2-6)Gal(b1-4)GlcNAc(b1-3)Gal(b1-4)GlcNAc(b1-2)Man(a1-3)[Neu5Ac(a2-6)Gal(b1-4)GlcNAc(b1-3)Gal(b1-4)GlcNAc(b1-2)Man(a1-6)]GalNAc
# Summary of the method: as §1
# [15] = target: Neu5Ac(a2-6)Gal(b1-4)GlcNAc(b1-3)Gal(b1-4)GlcNAc(b1-3)Gal(b1-4)GlcNAc
# Summary of the method: as §1
# [16] = target: Neu5Ac(a2-6)Gal(b1-4)GlcNAc(b1-3)Gal(b1-4)GlcNAc(b1-3)Gal(b1-4)GlcNAc(b1-2)Man(a1-3)[Neu5Ac(a2-6)Gal(b1-4)GlcNAc(b1-3)Gal(b1-4)GlcNAc(b1-3)Gal(b1-4)GlcNAc(b1-2)Man(a1-6)]GalNAc
# Summary of the method: as §1
# [17] = target: Neu5Ac(a2-6)Gal(b1-4)GlcNAc(b1-3)Gal(b1-4)GlcNAc(b1-3)GalNAc
# Summary of the method: as §1
# [18] = target: Neu5Ac(a2-6)Gal(b1-4)GlcNAc(b1-3)Gal(b1-4)GlcNAc(b1-3)[Neu5Ac(a2-6)Gal(b1-4)GlcNAc(b1-3)Gal(b1-4)GlcNAc(b1-6)]GalNAc
# Summary of the method: as §1
# [19] = target: Neu5Ac(a2-6)Gal(b1-4)GlcNAc(b1-3)Gal(b1-4)GlcNAc(b1-6)[Gal(b1-3)]GalNAc
# Summary of the method: as §1
# [20] = target: Neu5Ac(a2-6)Gal(b1-4)GlcNAc(b1-3)Gal(b1-4)[Fuc(a1-3)]GlcNAc(b1-3)Gal(b1-4)[Fuc(a1-3)]GlcNAc
# Summary of the method: as §1
# [21] = target: Neu5Ac(a2-6)Gal(b1-4)GlcNAc(b1-3)GalNAc
# Summary of the method: as §1
# [22] = target: Neu5Ac(a2-6)Gal(b1-4)GlcNAc(b1-3)[Neu5Ac(a2-6)Gal(b1-4)GlcNAc(b1-6)]GalNAc
# Summary of the method: as §1
# [23] = target: Neu5Ac(a2-6)Gal(b1-4)GlcNAc(b1-6)GalNAc
# Summary of the method: as §1
# [24] = target: Neu5Ac(a2-6)Gal(b1-4)GlcNAc(b1-6)[Gal(b1-3)GlcNAc(b1-3)]Gal(b1-4)Glc
# Summary of the method: as §1
# [25] = target: Neu5Ac(a2-6)Gal(b1-4)GlcNAc(b1-6)[Gal(b1-3)]GalNAc
# Summary of the method: as §1
# [26] = target: Neu5Ac(a2-6)Gal(b1-4)GlcNAc6S
# Summary of the method: as §1
# [27] = target: Neu5Ac(a2-6)GalNAc
# Summary of the method: as §1
# [28] = target: Neu5Ac(a2-6)GalNAc(b1-4)GlcNAc
# Summary of the method: as §1
# [29] = target: Neu5Ac(a2-6)GalNAc(b1-4)GlcNAc6S
# Summary of the method: as §1
# [30] = target: Neu5Ac(a2-6)GlcNAc(b1-4)GlcNAc
# Summary of the method: as §1
# [31] = target: Neu5Ac(a2-6)GlcNAc(b1-4)GlcNAc(b1-4)GlcNAc
# Summary of the method: as §1
binder,measurement,setting,value
B1,glycan array binding signal (z-score),[1],0.155
same,glycan array binding signal (z-score),[2],-0.764
same,glycan array binding signal (z-score),[3],-0.162
same,glycan array binding signal (z-score),[4],1.45
same,glycan array binding signal (z-score),[5],-0.32
same,glycan array binding signal (z-score),[6],1.71
same,glycan array binding signal (z-score),[7],-0.815
same,glycan array binding signal (z-score),[8],-1.07
same,glycan array binding signal (z-score),[9],-1.34
same,glycan array binding signal (z-score),[10],1.24
same,glycan array binding signal (z-score),[11],-0.415
same,glycan array binding signal (z-score),[12],-0.945
same,glycan array binding signal (z-score),[13],-0.234
same,glycan array binding signal (z-score),[14],-0.168
same,glycan array binding signal (z-score),[15],-0.509
same,glycan array binding signal (z-score),[16],0.3
same,glycan array binding signal (z-score),[17],-0.291
same,glycan array binding signal (z-score),[18],0.08
same,glycan array binding signal (z-score),[19],0.992
same,glycan array binding signal (z-score),[20],-0.899
same,glycan array binding signal (z-score),[21],0.534
same,glycan array binding signal (z-score),[22],0.155
same,glycan array binding signal (z-score),[23],0.617
same,glycan array binding signal (z-score),[24],0.231
same,glycan array binding signal (z-score),[25],1.67
same,glycan array binding signal (z-score),[26],0.931
same,glycan array binding signal (z-score),[27],-0.596
same,glycan array binding signal (z-score),[28],0.904
same,glycan array binding signal (z-score),[29],0.01
same,glycan array binding signal (z-score),[30],0.338
same,glycan array binding signal (z-score),[31],-0.353

# 2 entries from above, reformatted.
binder	measurement	setting	value
B1	glycan array binding signal (z-score)	[14]	-0.168
same	glycan array binding signal (z-score)	[21]	0.534
